US11814364B2, “Pyridine N-oxide derivatives useful as factor XIa inhibitors” (Janssen Pharmaceutica NV, priority 2021, dated 2023)

Protein sequences, listed by entry. Tags and fused reporters are not part of them. Residues count along the entry.
UniProt P03952, 391-638 limits assumed: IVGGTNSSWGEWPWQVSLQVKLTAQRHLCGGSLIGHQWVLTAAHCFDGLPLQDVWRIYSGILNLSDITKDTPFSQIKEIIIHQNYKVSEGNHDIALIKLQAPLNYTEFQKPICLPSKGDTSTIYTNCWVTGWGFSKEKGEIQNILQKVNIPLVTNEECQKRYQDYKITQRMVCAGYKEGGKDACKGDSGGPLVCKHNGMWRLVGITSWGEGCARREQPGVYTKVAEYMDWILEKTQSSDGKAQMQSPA
UniProt P03952, 20-390 partner limits assumed: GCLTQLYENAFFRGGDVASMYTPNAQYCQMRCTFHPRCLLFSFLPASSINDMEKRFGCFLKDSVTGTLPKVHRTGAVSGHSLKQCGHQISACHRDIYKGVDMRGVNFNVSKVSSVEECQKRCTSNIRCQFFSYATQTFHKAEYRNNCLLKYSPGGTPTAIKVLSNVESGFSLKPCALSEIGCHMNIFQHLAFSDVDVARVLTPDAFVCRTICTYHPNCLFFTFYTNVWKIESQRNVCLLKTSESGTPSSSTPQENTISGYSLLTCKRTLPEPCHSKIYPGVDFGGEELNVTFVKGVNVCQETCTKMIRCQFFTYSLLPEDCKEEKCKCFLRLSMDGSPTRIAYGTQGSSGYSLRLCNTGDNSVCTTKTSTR

What follows are compounds tested against human plasma kallikrein (Homo sapiens, UniProt P03952) (assay: Kallikrein inhibition FLINT assay with quenched AMC peptide substrate Z-Gly-Pro-Arg-AMC (end point EP or kinetic KIN reads)). Details: read-out: Kallikrein (KIN) IC50; kinetic reads at 5 min intervals over 30 min.
Type: biochemical

| SMILES | IC50 [nM] |
| --- | --- |
| [O-][n+]1cc(-c2c(-n3cnnn3)ccc(Cl)c2F)ccc1C(Cn1ccc(-c2ccc(F)cn2)n1)n1cc(-c2ccnc(C(F)(F)F)c2)cn1 (single isomer, unassigned) [P523] | 259 |
| [O-][n+]1cc(-c2c(-n3cnnn3)ccc(Cl)c2F)ccc1C(Cn1ccc(-c2ccc(F)cn2)n1)n1cc(-c2ccnc(C(F)(F)F)c2)cn1 (single isomer, unassigned) [P522] | 141 |
| CN(CC(c1ccc(-c2c(-n3cnnn3)ccc(Cl)c2F)c[n+]1[O-])n1cc(-c2ccncc2)cn1)C(=O)CCC(=O)N1CCCCC1 (stereo not drawn) | 24.2 |

The next lines start with the values.

| IC50 [nM] | SMILES |
| --- | --- |
| 6 | COc1cc(C(CC2CC2)n2cc(-c3ccn(C)c(=O)c3)cn2)[n+]([O-])cc1-c1c(-n2cnnn2)ccc(Cl)c1F (stereo not drawn) |
| 7.3 | COc1cc(C(CC2CC2)n2cc(-c3ccc(NC(C)=O)nc3F)cn2)[n+]([O-])cc1-c1c(-n2cnnn2)ccc(Cl)c1F (stereo not drawn) |
| 126 | [O-][n+]1ccc(-c2cnn(C(CCOC(F)F)c3ccc(-c4c(-n5cnnn5)ccc(Cl)c4F)c[n+]3[O-])c2)nc1 (stereo not drawn) |

The structures given here were assigned with low confidence; some may be wrong.
